{
  "source": "patent US20090175885A1",
  "about": "“METHOD OF CONTROLLING INSECT PESTS IN COTTON” (Clemson University, priority 2006, published 2009)",
  "origin": "cited, not measured here",
  "tested_on": "cancer cell lines",
  "settings": "a variety of cancer cell lines",
  "note": "At least one compound was matched to its structure with a doubt left.",
  "data": [
    {"smiles": "Cc1cc2c(C(C)C)c(O)c(O)c(C=O)c2c(O)c1-c1c(C)cc2c(C(C)C)c(O)c(O)c(C=O)c2c1O", "note": "[Gossypol, gossypol]", "values": [
      {"measurement": "suppression activity on cancer cell lines", "result": "suppression activity"}
    ]}
  ]
}
